Publication PMC4637324
Results are given in words; binding and its absence hold for the method and conditions named. In cells and extracts the contact can be indirect. Some results given as binding are weak or reduced against the parent protein; the word gives no strength.

Chains of the proteins cited; added tags and fusions are not shown.
UniProt O00401: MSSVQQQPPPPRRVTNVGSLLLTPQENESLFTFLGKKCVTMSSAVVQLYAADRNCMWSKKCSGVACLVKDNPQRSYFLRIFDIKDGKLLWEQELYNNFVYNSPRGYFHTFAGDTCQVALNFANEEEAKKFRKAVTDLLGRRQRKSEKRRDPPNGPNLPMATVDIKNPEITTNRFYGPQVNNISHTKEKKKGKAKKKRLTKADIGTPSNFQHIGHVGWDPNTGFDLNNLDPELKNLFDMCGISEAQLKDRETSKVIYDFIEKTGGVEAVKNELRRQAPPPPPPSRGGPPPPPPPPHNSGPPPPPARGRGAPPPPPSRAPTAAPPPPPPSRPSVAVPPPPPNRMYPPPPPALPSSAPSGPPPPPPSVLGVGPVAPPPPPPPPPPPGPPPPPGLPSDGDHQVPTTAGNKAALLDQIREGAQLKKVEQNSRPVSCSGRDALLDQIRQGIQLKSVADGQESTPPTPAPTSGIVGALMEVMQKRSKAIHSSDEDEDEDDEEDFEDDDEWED

Legend:
[1] = target: T1, RTVP-1, endogenous in glioma cells (human (endogenous in U87 and HF2609 GSCs)) (UniProt P48060); experiment: co-IP; reciprocal co-immunoprecipitation of endogenous proteins from U87 glioma cells and GSCs (HF2609)
T1 sequence: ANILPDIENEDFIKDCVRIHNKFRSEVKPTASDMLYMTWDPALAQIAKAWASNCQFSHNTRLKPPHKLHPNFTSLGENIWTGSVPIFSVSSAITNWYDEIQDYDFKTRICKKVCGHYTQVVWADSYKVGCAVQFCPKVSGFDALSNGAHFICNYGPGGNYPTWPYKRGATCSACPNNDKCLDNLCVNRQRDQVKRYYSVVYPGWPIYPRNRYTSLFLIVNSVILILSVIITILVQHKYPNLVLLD

[2] = target: heterogeneous nuclear ribonucleoprotein K (hnRNPK), endogenous in glioma cells (human (endogenous in U87 and GSCs)) (UniProt P61978); experiment: co-IP; lysates of U87 cells (CV cells and RTVP-1-overexpressing cells), immunoprecipitation with anti-hnRNPK antibody, blots with anti-N-WASP, anti-hnRNPK and anti-RTVP-1

| Substance | binding [1] | binding [2] |
| --- | --- | --- |
| N-WASP (neural WASP), endogenous in glioma cells (from UniProt O00401 1-505) | binds | binds |
| heterogeneous nuclear ribonucleoprotein K (hnRNPK), endogenous in glioma cells (from UniProt P61978 1-463) | binds |  |
